Data reported in the supplement of paper PMC6411743.
± gives the standard deviation of the averaged measurements. The list shows a part of the results.

Sequences of proteins named here, by UniProt entry; tags and fusion partners are left off. A change or cut given only in a name is not applied to a line headed by its entry.
UniProt P01848, whole entry, looked up: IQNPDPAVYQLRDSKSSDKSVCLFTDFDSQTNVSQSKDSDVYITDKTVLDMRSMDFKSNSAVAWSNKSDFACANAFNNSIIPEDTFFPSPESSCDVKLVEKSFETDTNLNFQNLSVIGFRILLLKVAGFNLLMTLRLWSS
UniProt Q8WWP7: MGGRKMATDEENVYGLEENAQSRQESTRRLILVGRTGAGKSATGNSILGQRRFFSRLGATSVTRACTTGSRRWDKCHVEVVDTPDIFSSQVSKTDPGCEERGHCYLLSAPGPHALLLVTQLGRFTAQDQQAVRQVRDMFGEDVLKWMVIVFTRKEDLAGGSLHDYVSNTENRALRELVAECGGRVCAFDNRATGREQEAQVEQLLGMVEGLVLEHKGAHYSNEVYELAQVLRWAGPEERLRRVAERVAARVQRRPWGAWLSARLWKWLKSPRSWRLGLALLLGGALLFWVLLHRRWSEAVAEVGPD
UniProt Q9H4M9: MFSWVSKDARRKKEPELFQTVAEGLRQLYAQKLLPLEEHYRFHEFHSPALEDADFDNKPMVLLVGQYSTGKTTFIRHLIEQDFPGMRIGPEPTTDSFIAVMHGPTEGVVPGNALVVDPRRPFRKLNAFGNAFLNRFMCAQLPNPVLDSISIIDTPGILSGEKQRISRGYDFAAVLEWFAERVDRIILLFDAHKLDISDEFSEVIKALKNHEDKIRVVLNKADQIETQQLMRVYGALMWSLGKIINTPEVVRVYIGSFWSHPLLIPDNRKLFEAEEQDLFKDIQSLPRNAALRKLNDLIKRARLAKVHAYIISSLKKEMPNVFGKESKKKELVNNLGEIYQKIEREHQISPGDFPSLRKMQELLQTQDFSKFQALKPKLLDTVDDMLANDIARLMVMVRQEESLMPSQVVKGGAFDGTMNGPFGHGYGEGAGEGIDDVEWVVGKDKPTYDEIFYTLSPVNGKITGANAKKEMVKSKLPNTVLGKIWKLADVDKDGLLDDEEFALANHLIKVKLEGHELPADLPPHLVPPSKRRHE
UniProt O14979: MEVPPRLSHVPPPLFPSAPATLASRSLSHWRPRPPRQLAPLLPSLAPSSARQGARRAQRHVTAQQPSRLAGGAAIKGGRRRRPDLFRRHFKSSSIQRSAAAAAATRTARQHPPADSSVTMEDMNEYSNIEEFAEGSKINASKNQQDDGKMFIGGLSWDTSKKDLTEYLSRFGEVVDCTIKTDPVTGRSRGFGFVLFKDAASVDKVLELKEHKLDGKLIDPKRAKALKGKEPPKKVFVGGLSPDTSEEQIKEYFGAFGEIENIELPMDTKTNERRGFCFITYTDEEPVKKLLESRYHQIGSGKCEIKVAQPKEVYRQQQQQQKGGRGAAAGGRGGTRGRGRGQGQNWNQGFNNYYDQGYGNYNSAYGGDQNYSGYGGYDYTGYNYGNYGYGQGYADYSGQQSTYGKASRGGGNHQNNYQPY
UniProt Q70IA6: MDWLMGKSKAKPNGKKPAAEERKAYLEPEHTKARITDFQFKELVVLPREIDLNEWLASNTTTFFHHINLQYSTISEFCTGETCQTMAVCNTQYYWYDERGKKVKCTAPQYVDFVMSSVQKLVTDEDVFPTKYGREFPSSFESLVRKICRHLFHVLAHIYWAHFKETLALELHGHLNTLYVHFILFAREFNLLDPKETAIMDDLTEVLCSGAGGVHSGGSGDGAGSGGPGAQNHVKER
UniProt Q6DD87: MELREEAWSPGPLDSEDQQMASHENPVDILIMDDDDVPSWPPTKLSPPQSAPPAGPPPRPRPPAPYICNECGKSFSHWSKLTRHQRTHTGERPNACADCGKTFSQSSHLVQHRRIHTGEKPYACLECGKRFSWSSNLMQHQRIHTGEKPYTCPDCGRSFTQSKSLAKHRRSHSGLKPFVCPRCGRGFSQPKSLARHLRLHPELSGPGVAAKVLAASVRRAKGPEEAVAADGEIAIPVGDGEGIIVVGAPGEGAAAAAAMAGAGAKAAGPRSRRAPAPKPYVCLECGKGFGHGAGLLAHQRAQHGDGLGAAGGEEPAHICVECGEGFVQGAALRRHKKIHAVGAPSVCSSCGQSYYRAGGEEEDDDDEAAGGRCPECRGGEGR
UniProt P53814: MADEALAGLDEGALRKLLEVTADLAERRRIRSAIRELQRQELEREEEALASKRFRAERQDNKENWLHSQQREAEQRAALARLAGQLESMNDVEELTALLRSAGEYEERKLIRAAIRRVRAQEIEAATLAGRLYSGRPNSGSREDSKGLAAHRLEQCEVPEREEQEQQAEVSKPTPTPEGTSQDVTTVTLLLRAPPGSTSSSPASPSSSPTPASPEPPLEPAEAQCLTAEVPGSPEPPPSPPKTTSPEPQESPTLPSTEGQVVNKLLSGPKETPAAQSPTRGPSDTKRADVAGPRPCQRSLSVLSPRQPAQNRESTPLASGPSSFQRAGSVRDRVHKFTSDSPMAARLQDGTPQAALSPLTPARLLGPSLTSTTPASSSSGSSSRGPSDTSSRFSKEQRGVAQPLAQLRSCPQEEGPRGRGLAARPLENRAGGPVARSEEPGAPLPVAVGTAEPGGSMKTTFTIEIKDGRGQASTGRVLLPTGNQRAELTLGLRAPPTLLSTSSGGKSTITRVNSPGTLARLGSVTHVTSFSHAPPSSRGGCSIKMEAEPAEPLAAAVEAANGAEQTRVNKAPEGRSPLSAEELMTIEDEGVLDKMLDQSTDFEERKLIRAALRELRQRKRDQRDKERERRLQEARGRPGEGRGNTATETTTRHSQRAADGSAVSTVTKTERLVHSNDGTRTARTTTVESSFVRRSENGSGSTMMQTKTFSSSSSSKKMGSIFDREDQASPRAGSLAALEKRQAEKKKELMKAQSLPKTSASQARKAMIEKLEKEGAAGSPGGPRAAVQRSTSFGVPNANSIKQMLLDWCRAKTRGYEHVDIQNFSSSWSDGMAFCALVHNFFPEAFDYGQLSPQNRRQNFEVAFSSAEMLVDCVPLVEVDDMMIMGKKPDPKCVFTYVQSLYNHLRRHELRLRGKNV
UniProt O75503: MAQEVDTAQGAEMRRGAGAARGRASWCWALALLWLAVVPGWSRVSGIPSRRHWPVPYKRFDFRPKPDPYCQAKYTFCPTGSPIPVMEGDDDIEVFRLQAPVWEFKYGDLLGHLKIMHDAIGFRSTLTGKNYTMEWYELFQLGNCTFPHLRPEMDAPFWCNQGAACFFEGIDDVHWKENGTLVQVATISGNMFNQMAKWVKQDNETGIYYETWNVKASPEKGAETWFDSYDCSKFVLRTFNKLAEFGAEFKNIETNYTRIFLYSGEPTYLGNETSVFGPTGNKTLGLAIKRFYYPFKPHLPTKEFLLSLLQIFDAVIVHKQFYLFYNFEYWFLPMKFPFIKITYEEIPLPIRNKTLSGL
UniProt A8CG34, whole entry: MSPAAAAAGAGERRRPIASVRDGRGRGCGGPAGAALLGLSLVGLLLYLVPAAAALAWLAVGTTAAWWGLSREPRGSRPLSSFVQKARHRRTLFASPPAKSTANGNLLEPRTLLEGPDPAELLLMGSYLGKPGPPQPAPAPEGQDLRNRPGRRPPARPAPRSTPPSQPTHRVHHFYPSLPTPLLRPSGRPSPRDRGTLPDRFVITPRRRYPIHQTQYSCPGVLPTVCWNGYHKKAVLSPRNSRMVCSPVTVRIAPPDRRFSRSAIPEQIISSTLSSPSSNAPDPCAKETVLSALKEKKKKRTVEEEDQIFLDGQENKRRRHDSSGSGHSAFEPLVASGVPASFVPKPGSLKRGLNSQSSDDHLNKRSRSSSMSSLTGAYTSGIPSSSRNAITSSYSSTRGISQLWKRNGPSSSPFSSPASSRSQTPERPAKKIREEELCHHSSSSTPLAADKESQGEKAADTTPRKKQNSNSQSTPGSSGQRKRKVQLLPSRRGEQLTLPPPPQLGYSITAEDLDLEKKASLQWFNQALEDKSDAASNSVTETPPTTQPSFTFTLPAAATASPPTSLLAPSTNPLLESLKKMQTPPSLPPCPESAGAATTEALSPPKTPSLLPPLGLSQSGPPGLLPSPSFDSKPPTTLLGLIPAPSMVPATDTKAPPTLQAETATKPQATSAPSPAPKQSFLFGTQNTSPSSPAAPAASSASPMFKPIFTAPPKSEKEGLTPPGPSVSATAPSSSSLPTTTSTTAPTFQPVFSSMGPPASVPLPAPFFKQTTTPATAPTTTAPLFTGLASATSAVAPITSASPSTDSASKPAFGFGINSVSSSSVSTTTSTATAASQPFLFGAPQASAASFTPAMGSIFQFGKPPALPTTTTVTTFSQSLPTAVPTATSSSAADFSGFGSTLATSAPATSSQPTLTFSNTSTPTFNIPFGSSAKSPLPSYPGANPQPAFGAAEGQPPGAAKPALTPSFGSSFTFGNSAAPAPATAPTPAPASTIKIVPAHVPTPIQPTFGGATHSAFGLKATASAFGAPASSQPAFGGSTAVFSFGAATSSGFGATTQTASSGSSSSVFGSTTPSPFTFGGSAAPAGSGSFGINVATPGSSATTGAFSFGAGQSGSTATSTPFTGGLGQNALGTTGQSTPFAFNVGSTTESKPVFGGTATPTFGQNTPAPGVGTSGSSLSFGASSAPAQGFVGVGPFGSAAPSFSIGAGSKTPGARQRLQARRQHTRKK
UniProt P46379: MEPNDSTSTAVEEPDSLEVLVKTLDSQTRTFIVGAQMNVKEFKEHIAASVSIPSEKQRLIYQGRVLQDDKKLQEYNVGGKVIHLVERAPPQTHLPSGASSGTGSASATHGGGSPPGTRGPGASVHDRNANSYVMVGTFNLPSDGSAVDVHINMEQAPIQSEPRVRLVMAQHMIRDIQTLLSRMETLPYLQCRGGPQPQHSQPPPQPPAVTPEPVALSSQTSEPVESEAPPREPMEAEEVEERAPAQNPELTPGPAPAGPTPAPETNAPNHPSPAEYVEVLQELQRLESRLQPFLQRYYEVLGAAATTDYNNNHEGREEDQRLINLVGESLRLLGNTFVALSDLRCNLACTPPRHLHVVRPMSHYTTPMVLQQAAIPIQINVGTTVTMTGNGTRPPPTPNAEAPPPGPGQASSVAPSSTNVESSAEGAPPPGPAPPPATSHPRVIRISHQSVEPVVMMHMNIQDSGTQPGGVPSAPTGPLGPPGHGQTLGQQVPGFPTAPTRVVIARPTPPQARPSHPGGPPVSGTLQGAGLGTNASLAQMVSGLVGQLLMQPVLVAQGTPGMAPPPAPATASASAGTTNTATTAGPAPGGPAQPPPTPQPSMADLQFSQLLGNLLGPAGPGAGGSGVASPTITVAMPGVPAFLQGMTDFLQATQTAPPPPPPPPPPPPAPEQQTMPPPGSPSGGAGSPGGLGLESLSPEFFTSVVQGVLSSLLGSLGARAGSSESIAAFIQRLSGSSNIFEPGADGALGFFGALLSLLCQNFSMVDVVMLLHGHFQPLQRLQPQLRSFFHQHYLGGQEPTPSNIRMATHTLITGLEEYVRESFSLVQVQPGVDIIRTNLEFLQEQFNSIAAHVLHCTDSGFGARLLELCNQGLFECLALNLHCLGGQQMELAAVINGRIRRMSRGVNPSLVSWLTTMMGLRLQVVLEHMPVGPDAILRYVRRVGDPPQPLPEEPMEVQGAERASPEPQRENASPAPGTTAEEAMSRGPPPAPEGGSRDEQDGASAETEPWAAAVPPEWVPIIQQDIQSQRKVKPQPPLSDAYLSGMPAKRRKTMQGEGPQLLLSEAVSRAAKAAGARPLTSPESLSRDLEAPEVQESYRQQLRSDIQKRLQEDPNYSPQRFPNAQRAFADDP
UniProt Q5VWQ0: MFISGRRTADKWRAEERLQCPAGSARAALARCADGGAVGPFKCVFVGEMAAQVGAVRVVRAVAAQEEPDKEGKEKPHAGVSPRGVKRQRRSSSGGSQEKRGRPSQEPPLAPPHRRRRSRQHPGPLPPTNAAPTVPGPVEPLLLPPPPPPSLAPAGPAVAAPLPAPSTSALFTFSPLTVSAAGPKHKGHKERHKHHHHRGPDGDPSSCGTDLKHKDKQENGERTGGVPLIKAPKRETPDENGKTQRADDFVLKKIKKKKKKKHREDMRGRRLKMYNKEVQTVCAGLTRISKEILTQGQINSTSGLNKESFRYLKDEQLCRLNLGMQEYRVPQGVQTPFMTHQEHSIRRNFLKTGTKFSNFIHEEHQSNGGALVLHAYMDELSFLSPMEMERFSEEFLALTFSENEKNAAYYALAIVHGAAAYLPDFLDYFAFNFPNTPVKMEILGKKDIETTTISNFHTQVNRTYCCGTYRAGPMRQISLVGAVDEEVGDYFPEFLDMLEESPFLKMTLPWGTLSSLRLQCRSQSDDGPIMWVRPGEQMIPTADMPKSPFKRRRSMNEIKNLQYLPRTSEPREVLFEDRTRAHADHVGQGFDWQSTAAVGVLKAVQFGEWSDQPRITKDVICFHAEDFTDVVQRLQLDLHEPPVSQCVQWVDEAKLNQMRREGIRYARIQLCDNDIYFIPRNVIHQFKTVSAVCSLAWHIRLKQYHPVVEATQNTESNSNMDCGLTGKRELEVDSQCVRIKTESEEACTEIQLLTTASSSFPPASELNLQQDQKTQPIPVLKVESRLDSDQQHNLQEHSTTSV

The targets below were run with Nc1nc2c(ncn2[C@@H]2O[C@H](COP(=O)(O)OP(=O)(O)OP(=O)(O)O)[C@@H](O)[C@H]2O)c(=O)[nH]1 [guanosine triphosphate] (assay: NP40-soluble protein abundance relative to vehicle (solubility fold change) (ratio); higher = more soluble protein in presence of GTP). Settings: concentration: 1mM.
Method in brief: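 Each value is a fold change relative to the detergent-processed vehicle, calculated per replicate from vsn-normalised intensities. Jurkat crude lysate received eight concentrations (0.1 to 10 mM) for 10 min at room temperature and 3 min at 37 °C, then was solubilised in 0.8% NP40 with benzonase (60 min, 4 °C). The ultracentrifuged supernatant was TMT-labelled and run by LC-MS/MS in three independent experiments.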

Target	NP40-soluble protein abundance
A0A087WWC6|P01848 and related entries (UniProt Q6P4I7+P01848)	0.994 ± 0.11
A0A087WTJ2|Q8WWP7 (UniProt Q8WWP7)	0.967 ± 0.0097
A0A024R571|Q9H4M9 (UniProt Q9H4M9)	0.939 ± 0.036
A0A087WWF6|F8W8R3 and related entries (UniProt P49005)	0.945 ± 0.052
A0A087WUQ6|P07203 (UniProt P07203)	0.929 ± 0.097
A0A087WW40|Q9Y371 and related entries (UniProt Q9Y371)	0.933 ± 0.094
A0A087WV52|Q9NP92 (UniProt Q9NP92)	1.35 ± 0.39
A0A087WUK2|O14979-3|O14979 and related entries (UniProt O14979)	1.01 ± 0.019
A0A087WVN8|Q13043 (UniProt Q13043)	0.924 ± 0.073
A0A087WWS1|Q96FV9 (UniProt Q96FV9)	1.41 ± 0.19
A0A024R4E5 (UniProt Q00341)	0.926 ± 0.015
A0A087WVS8|Q70IA6 and related entries (UniProt Q70IA6)	1 ± 0.015
A0A087WTU9|A0A087WZY3|Q8TCU4 and related entries (UniProt Q8TCU4)	1.09 ± 0.12
A0A087WUD1|Q6DD87 (UniProt Q6DD87)	1.001 ± 0.0097
A0A024RA52|P25787 (UniProt P25787)	1.1 ± 0.044
A0A087WVP4|A0A087X1R1|P53814 and related entries (UniProt P53814)	1.05 ± 0.037
A0A087WW84|E9PP15 and related entries (UniProt Q14114)	0.967 ± 0.12
A0A087WV73|P46087 and related entries (UniProt P46087)	1.08 ± 0.036

Target	NP40-soluble protein abundance
A0A024R644|O75503 (UniProt O75503)	0.909 ± 0.044
A0A087WU53|Q9H0U3 (UniProt Q9H0U3)	0.914 ± 0.034
A0A087WUD7|Q8WU76 and related entries (UniProt Q8WU76)	1.06 ± 0.13
A0A075B7C0|A0A0C4DGQ5|K7EIV0 and related entries (UniProt P04632)	0.944 ± 0.054
A0A087WTA1|A0A0A0MR20|E9PDN6 and related entries (UniProt Q9C0A0)	1.01 ± 0.098
A0A075B7F8|A8CG34 (UniProt A8CG34)	0.967 ± 0.042
A0A075B716|H0YN88 and related entries (UniProt P08708)	1.07 ± 0.23
A0A087WW14|Q0VDG4 and related entries (UniProt Q0VDG4)	0.9363 ± 0.0053
A0A087WUB9|Q8WYA6 (UniProt Q8WYA6)	1.02 ± 0.029
A0A087WU02|F8VPA6 and related entries (UniProt Q96RQ1)	0.922 ± 0.042
A0A024RCR6|A0A0G2JK23|P46379 and related entries (UniProt P46379)	0.933 ± 0.062
A0A087WWP8|A0A0C4DGT8|Q5VWQ0 (UniProt Q5VWQ0)	1.27 ± 0.11
A0A087WVF7|Q9NZM3 and related entries (UniProt Q9NZM3)	0.926 ± 0.094
A0A087WWM0|O43617 and related entries (UniProt O43617)	0.928 ± 0.12
A0A075B6F9|M0R3B2 and related entries (UniProt Q9Y314)	0.899 ± 0.068
A0A024R216|Q9Y3E1 (UniProt Q9Y3E1)	1.02 ± 0.096
A0A087WTX2|Q92504 and related entries (UniProt Q92504)	0.991 ± 0.045
A0A087WUC6|E9PI68 and related entries (UniProt Q15005)	0.899 ± 0.025

Same assay, conditions: concentration: 2mM

Target	NP40-soluble protein abundance
A0A087WWC6|P01848 and related entries (UniProt Q6P4I7+P01848)	0.974 ± 0.16
A0A087WTJ2|Q8WWP7 (UniProt Q8WWP7)	0.956 ± 0.025
A0A024R571|Q9H4M9 (UniProt Q9H4M9)	0.934 ± 0.02
A0A087WWF6|F8W8R3 and related entries (UniProt P49005)	0.941 ± 0.028
A0A087WUQ6|P07203 (UniProt P07203)	0.895 ± 0.12
A0A087WW40|Q9Y371 and related entries (UniProt Q9Y371)	0.888 ± 0.12
A0A087WV52|Q9NP92 (UniProt Q9NP92)	1.55 ± 0.53
A0A087WUK2|O14979-3|O14979 and related entries (UniProt O14979)	1.01 ± 0.068
A0A087WVN8|Q13043 (UniProt Q13043)	0.887 ± 0.07
A0A087WWS1|Q96FV9 (UniProt Q96FV9)	1.76 ± 0.41
A0A024R4E5 (UniProt Q00341)	0.908 ± 0.015
A0A087WVS8|Q70IA6 and related entries (UniProt Q70IA6)	1.02 ± 0.034
A0A087WTU9|A0A087WZY3|Q8TCU4 and related entries (UniProt Q8TCU4)	1.1 ± 0.031
A0A087WUD1|Q6DD87 (UniProt Q6DD87)	0.963 ± 0.011
A0A024RA52|P25787 (UniProt P25787)	1.02 ± 0.12
A0A087WVP4|A0A087X1R1|P53814 and related entries (UniProt P53814)	1.13 ± 0.016
A0A087WW84|E9PP15 and related entries (UniProt Q14114)	0.944 ± 0.08
A0A087WV73|P46087 and related entries (UniProt P46087)	1.17 ± 0.037

Target	NP40-soluble protein abundance
A0A024R644|O75503 (UniProt O75503)	0.907 ± 0.032
A0A087WU53|Q9H0U3 (UniProt Q9H0U3)	0.945 ± 0.069
A0A087WUD7|Q8WU76 and related entries (UniProt Q8WU76)	1.08 ± 0.19
A0A075B7C0|A0A0C4DGQ5|K7EIV0 and related entries (UniProt P04632)	0.89 ± 0.045
A0A087WTA1|A0A0A0MR20|E9PDN6 and related entries (UniProt Q9C0A0)	0.855 ± 0.014
A0A075B7F8|A8CG34 (UniProt A8CG34)	0.922 ± 0.081
A0A075B716|H0YN88 and related entries (UniProt P08708)	1.04 ± 0.31
A0A087WW14|Q0VDG4 and related entries (UniProt Q0VDG4)	0.994 ± 0.07
A0A087WUB9|Q8WYA6 (UniProt Q8WYA6)	0.9973 ± 0.0034
A0A087WU02|F8VPA6 and related entries (UniProt Q96RQ1)	0.885 ± 0.042
A0A024RCR6|A0A0G2JK23|P46379 and related entries (UniProt P46379)	0.939 ± 0.05
A0A087WWP8|A0A0C4DGT8|Q5VWQ0 (UniProt Q5VWQ0)	1.38 ± 0.15
A0A087WVF7|Q9NZM3 and related entries (UniProt Q9NZM3)	0.956 ± 0.097
A0A087WWM0|O43617 and related entries (UniProt O43617)	0.948 ± 0.11
A0A075B6F9|M0R3B2 and related entries (UniProt Q9Y314)	0.913 ± 0.055
A0A024R216|Q9Y3E1 (UniProt Q9Y3E1)	1.01 ± 0.12
A0A087WTX2|Q92504 and related entries (UniProt Q92504)	0.983 ± 0.044
A0A087WUC6|E9PI68 and related entries (UniProt Q15005)	0.882 ± 0.05
